Source: US20230220071A1
No constants are given. Whether binding was seen depends on the method and setting. Some results given as binding are weak or reduced against the parent protein; the word gives no strength. Blank lines part the entries; values can stand above or below the binder they belong to.

Key:
[1] = biological target: human transferrin receptor (BIAcore, construct not stated) (human) (UniProt P02786); assay: SPR (BIAcore), off-rate determination at 25 °C
[2] = biological target: cynomolgus transferrin receptor (BIAcore, construct not stated) (cynomolgus); assay: SPR (BIAcore), off-rate determination at 25 °C
[3] = biological target: human transferrin receptor (BIAcore, construct not stated) (human) (UniProt P02786); assay: SPR (BIAcore), off-rate determination at 37 °C
[4] = biological target: cynomolgus transferrin receptor (BIAcore, construct not stated) (cynomolgus); assay: SPR (BIAcore), off-rate determination at 37 °C

- binding [1]: binds
- binding [2]: binds
B1: 567 (antibody, V domains shown)
VH: QSMEESGGRLVTPGTPLTLTCTVSGFSLSSYAMSWVRQAPGKGLEWIGYIWSGGSTDYASWAKGRFTISKTSTTVDLKITSPTTEDTATYFCARRYGTSYPDYGDANGFDPWGPGTLVTVSS
VL: AYDMTQTPASVEVAVGGTVTIKCQASQSISSYLSWYQQKPGQRPKLLIYRASTLASGVSSRFKGSGSGTQFTLTISGVESADAATYYCQQSYSSSNVDNTFGGGTEVVVK

- binding [3]: binds
- binding [4]: binds
- binding [1]: binds
- binding [2]: binds
B2: murine anti-transferrin receptor antibody 128.1 (antibody, V domains shown)
VH: QVQLVQSGAEVKKPGASVKVSCKASGYTFTGYTMNWVRQAPGQGLEWMGRINPHNGGTDYAQKFQGRVTMTRDTSISTAYMELSRLRSDDTAVYYCARGYYYYSLDYWGQGTLVTVSS
VL: DIQMTQSPSSLSASVGDRVTITCRASSSIRYIHWYQQKPGKAPKRLIYDTSNLASGVPSRFSGSGSGTEFTLTISSLQPEDFATYYCHQRNSYPWTFGQGTRLEIK
